# Measurements reported in the supplement of paper PMC12823440, “Inhibitors supercharge kinase turnover through native proteolytic circuits” (Nature, 2025).
# Amino acid sequences for entries named in this document (tags omitted). A change or cut given only in a name is not applied to a line headed by its entry.
# UniProt Q15208: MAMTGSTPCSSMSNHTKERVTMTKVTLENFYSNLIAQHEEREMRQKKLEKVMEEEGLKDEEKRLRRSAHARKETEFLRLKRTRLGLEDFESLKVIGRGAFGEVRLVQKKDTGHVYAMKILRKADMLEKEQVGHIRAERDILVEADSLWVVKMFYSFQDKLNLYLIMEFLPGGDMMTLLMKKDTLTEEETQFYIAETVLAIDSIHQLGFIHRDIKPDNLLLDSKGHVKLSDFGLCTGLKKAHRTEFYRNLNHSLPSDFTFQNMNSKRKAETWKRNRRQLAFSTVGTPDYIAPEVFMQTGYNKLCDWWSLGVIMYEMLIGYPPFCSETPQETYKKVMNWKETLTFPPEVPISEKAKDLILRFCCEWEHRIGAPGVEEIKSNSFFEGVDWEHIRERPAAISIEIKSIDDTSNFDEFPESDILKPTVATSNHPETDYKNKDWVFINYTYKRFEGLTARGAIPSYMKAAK
# UniProt P29597: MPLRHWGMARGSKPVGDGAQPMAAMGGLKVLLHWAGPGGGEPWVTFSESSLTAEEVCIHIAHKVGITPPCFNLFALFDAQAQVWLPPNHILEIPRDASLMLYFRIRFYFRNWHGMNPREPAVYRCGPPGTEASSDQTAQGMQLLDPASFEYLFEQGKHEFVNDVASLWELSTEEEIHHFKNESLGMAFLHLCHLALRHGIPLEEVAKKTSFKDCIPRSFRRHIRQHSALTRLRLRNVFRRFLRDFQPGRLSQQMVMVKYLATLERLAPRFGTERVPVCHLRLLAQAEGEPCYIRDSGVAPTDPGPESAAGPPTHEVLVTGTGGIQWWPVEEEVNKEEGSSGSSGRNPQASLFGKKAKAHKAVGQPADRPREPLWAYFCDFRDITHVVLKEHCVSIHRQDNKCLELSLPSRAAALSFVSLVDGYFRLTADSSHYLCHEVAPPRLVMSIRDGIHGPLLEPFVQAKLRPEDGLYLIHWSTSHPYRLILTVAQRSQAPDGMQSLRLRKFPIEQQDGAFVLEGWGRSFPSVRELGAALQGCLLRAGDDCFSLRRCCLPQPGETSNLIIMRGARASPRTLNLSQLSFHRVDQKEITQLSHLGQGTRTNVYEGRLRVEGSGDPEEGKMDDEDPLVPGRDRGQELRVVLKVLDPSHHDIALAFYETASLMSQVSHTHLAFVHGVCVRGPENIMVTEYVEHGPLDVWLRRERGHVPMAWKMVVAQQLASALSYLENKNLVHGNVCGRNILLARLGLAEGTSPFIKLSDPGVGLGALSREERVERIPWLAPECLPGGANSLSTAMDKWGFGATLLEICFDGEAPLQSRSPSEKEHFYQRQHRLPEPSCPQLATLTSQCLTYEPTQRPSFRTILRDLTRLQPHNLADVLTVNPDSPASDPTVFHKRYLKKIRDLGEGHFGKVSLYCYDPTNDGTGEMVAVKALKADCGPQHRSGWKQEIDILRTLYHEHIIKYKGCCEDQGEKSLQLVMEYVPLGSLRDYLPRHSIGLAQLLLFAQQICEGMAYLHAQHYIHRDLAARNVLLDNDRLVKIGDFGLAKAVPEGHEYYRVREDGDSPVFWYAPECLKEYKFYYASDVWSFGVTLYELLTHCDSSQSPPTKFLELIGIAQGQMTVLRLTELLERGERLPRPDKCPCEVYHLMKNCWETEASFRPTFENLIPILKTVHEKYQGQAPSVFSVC
# UniProt P07947, whole entry, looked up: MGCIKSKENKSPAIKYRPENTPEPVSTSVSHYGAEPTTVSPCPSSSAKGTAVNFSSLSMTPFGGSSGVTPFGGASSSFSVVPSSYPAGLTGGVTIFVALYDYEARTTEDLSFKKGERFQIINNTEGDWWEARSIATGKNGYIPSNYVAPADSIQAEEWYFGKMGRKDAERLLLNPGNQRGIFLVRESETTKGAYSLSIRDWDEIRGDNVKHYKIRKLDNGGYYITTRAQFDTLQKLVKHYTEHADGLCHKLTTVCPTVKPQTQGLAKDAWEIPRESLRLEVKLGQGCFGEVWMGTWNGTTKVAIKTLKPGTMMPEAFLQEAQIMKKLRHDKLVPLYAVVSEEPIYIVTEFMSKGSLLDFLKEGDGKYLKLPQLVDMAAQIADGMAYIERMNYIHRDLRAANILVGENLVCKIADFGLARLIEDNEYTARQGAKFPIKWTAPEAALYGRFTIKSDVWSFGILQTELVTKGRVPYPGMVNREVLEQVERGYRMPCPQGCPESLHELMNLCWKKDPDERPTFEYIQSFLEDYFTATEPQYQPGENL
# UniProt P43403: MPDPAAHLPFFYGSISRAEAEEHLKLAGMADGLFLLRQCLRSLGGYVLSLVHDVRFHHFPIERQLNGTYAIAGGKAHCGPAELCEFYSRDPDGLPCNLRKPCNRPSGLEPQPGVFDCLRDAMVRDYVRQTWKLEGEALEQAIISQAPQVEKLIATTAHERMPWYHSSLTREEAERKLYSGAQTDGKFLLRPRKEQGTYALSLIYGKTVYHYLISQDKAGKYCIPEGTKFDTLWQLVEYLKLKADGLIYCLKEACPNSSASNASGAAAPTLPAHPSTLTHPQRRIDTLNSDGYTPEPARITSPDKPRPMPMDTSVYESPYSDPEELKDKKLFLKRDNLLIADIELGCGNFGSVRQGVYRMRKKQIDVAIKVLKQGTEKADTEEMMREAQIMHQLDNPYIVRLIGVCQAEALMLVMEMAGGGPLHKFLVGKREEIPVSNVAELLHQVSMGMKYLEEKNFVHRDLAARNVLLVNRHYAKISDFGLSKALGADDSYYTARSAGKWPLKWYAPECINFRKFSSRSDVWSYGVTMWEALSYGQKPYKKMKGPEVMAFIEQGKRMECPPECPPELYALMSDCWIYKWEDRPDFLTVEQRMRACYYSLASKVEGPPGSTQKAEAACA
# UniProt P31749: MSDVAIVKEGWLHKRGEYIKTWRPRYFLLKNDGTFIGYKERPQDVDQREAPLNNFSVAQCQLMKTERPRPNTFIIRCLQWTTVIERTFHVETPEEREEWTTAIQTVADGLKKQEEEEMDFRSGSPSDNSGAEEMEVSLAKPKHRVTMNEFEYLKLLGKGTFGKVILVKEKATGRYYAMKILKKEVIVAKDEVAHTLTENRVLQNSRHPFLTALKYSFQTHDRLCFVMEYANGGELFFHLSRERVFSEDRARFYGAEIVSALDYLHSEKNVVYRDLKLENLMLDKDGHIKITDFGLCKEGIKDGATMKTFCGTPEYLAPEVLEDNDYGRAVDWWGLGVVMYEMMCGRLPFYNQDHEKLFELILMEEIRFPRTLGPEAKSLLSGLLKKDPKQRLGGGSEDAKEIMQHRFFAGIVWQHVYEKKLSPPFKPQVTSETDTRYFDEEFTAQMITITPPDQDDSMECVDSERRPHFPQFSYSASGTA
# UniProt P10398: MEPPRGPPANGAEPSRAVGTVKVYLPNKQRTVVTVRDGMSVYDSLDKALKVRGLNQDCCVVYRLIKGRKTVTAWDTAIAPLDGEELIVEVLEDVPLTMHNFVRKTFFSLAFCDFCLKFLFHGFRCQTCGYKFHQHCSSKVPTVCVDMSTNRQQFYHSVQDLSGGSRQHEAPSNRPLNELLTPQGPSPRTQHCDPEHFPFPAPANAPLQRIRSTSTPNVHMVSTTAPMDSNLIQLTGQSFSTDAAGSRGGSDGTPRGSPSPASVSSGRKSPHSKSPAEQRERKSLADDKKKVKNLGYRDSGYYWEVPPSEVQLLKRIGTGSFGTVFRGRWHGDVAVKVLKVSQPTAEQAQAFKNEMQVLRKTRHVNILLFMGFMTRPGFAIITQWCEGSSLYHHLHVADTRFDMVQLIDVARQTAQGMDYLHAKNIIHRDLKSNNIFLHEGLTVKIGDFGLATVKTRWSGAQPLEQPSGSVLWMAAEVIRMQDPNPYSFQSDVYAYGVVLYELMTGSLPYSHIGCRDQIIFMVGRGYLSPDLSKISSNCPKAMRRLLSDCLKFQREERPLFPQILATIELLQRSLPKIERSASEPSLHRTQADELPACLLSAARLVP
# UniProt O14965: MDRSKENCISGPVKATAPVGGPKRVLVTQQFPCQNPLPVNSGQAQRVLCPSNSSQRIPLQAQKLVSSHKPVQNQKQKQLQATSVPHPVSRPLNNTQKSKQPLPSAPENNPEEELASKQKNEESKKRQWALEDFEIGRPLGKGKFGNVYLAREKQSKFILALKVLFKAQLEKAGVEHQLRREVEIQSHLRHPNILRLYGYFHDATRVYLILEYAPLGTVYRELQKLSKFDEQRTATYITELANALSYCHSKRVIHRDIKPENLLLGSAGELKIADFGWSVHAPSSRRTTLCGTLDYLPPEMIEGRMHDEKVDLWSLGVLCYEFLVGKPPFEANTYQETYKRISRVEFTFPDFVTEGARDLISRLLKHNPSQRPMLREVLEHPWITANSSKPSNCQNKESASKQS
# UniProt Q96GD4, whole entry: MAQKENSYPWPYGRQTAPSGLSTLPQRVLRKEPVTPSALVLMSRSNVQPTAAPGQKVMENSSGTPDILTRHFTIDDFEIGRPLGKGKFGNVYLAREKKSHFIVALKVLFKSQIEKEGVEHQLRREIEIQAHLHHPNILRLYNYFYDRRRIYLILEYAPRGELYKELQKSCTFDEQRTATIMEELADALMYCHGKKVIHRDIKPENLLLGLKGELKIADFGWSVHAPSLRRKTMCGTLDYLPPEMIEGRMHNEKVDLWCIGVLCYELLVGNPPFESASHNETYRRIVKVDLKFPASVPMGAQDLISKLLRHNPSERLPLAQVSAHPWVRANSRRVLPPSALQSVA
# UniProt Q9UQB9: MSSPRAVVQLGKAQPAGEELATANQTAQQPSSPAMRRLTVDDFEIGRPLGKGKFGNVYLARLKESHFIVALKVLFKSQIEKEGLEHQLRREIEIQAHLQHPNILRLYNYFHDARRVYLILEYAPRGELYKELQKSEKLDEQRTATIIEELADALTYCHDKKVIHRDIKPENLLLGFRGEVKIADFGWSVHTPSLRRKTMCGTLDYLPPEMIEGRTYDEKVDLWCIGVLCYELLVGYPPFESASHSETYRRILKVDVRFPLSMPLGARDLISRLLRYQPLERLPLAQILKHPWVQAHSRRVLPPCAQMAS
# UniProt P51813: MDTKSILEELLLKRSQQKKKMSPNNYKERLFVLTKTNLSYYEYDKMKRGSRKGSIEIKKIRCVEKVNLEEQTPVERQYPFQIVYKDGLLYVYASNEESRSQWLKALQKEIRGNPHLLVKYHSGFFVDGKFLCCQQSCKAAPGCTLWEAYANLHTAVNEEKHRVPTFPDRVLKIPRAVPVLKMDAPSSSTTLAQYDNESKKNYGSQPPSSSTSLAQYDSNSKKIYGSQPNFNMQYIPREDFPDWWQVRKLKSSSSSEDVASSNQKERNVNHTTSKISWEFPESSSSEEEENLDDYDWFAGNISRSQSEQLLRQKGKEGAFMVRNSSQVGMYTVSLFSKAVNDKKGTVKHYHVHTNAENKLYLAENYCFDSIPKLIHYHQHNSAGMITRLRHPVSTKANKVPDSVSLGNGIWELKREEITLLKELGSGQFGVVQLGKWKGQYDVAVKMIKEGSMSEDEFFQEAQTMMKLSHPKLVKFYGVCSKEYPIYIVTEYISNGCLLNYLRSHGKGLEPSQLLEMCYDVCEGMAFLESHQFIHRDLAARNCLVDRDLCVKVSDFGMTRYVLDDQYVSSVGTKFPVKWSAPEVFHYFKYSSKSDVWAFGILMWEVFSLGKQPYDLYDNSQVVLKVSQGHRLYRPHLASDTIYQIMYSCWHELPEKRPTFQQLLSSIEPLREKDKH
# UniProt P15056, whole entry, looked up: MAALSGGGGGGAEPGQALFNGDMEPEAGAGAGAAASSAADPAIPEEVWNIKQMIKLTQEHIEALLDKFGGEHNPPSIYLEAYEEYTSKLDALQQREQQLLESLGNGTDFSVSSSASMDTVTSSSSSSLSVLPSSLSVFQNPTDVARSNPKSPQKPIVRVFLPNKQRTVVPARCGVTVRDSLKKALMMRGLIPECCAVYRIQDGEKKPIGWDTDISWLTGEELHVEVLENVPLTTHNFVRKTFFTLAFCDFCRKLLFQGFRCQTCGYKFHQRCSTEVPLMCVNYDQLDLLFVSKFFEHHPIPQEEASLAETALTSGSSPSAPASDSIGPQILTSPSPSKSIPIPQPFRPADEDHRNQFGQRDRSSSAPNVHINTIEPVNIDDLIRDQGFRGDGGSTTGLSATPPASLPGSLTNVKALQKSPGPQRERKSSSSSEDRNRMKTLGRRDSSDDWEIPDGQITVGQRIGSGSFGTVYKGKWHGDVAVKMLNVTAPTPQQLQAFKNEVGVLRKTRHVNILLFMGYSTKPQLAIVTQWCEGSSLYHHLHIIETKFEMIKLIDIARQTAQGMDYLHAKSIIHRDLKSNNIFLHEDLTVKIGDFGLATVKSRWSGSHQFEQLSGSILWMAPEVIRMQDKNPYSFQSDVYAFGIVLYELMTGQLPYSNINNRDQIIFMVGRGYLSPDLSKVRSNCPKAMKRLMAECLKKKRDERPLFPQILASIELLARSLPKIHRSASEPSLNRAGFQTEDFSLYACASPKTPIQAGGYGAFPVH
# The other results are listed elsewhere or left out. Hit calls seldom repeat between salt and free forms of one compound.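 Kinases, fused to nanoluciferase, were expressed in K562 cells; luminescence was measured every 4 h from 2 to 18 h as percent of control (DMSO = 100%, positive control = 0%). A time point is decreased if signal falls significantly (2 sigma). Hits were called by the authors by a rule that is not shown; the count of time points alone does not decide it.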
# Tests used:
# Details in all cases: K562; 2-18 h
# STK38 = STK38 (UniProt Q15208); experiment: kinase-Nluc reporter destabilization hit call (1 = scored as downregulated) (binary); higher = compound decreases kinase abundance
# SYK = SYK (UniProt P43405); experiment: as above
# TEC = TEC (UniProt P42680); experiment: as above
# TYK2 = TYK2 (UniProt P29597); experiment: as above
# ULK3 = ULK3 (UniProt Q6PHR2); experiment: as above
# YES1 = YES1 (UniProt P07947); experiment: as above
# ZAK = ZAK (UniProt Q9NYL2); experiment: as above
# ZAP70 = ZAP70 (UniProt P43403); experiment: as above
# ABL1 = ABL1 (UniProt P00519); experiment: number of time points (of 5) at which kinase-Nluc abundance scored as decreased, DMSO-normalised (count); higher = more persistent destabilization
# AKT1 = AKT1 (UniProt P31749); experiment: as above
# ALK = ALK (UniProt Q9UM73); experiment: as above
# ARAF = ARAF (UniProt P10398); experiment: as above
# AURKA = AURKA (UniProt O14965); experiment: as above
# AURKB = AURKB (UniProt Q96GD4); experiment: as above
# AURKC = AURKC (UniProt Q9UQB9); experiment: as above
# BLK = BLK (UniProt P51451); experiment: as above
# BMX = BMX (UniProt P51813); experiment: as above
# BRAF = BRAF (UniProt P15056); experiment: as above
# BRAF_V600E = experiment: as above
# BTK = BTK (UniProt Q06187); experiment: as above
Compound,kinase-Nluc reporter destabilization hit call (STK38),kinase-Nluc reporter destabilization hit call (SYK),kinase-Nluc reporter destabilization hit call (TEC),kinase-Nluc reporter destabilization hit call (TYK2),kinase-Nluc reporter destabilization hit call (ULK3),kinase-Nluc reporter destabilization hit call (YES1),kinase-Nluc reporter destabilization hit call (ZAK),kinase-Nluc reporter destabilization hit call (ZAP70),number of time points (ABL1),number of time points (AKT1),number of time points (ALK),number of time points (ARAF),number of time points (AURKA),number of time points (AURKB),number of time points (AURKC),number of time points (BLK),number of time points (BMX),number of time points (BRAF),number of time points (BRAF_V600E),number of time points (BTK)
O=C1Cc2c([nH]c3ccc(Br)cc23)-c2ncccc2N1 [1-Azakenpaullone] (10 µM),inactive: 0,inactive: 0,inactive: 0,inactive: 0,inactive: 0,inactive: 0,inactive: 0,inactive: 0,0,0,0,0,0,0,0,0,0,0,0,0
CNC(=O)c1cccc(-c2ccc3c(N4CCOC[C@@H]4C)nc(N4CCOC[C@@H]4C)nc3n2)c1 [Vistusertib] (2.5 µM),inactive: 0,inactive: 0,inactive: 0,inactive: 0,inactive: 0,inactive: 0,inactive: 0,inactive: 0,5,0,1,0,4,4,0,3,4,2,4,0
CCOc1cc2ncc(C#N)c(Nc3ccc(OCc4ccccn4)c(Cl)c3)c2cc1NC(=O)/C=C/CN(C)C [Neratinib] (10 µM),inactive: 0,inactive: 0,inactive: 0,inactive: 0,inactive: 0,inactive: 0,inactive: 0,inactive: 0,1,0,0,0,0,0,0,0,3,0,0,0
O=C1Nc2ccccc2/C1=C/c1ccc(F)cc1 (10 µM),inactive: 0,inactive: 0,inactive: 0,inactive: 0,inactive: 0,inactive: 0,inactive: 0,inactive: 0,0,0,0,0,0,0,0,0,0,0,0,0
C[C@H](CN(C)C)Oc1nc(Nc2cc3cccc(Cl)c3cn2)cnc1C#N (10 µM),inactive: 0,inactive: 0,inactive: 0,inactive: 0,inactive: 0,inactive: 0,inactive: 0,inactive: 0,0,0,0,0,0,0,0,0,0,0,0,0
CCN(CC)CCCCNc1ncc2cc(-c3cc(OC)cc(OC)c3)c(NC(=O)NC(C)(C)C)nc2n1 (10 µM),inactive: 0,inactive: 0,inactive: 0,inactive: 0,inactive: 0,inactive: 0,inactive: 0,inactive: 0,0,0,0,0,0,0,0,0,0,0,0,0
Nc1nc(N)c(N=O)c(OCC2CCCCC2)n1 (10 µM),inactive: 0,inactive: 0,inactive: 0,inactive: 0,inactive: 0,inactive: 0,inactive: 0,inactive: 0,0,0,0,0,0,0,0,0,0,0,0,0
CC(=O)N1CCN(c2ccc(OCC3COC(Cn4ccnc4)(c4ccc(Cl)cc4Cl)O3)cc2)CC1 (stereo not given) [Ketoconazole] (2.5 µM),inactive: 0,inactive: 0,inactive: 0,inactive: 0,inactive: 0,inactive: 0,inactive: 0,inactive: 0,0,0,0,0,0,0,0,0,0,0,0,0
Cc1ccc2c(Nc3cccc(OC(F)(F)F)c3)nccc2c1Nc1ncccc1-c1ncnc2[nH]cnc12 (10 µM),inactive: 0,inactive: 0,inactive: 0,inactive: 0,inactive: 0,inactive: 0,inactive: 0,inactive: 0,0,0,0,0,0,0,0,0,0,0,0,0
Oc1ccc(-c2nc(-c3ccc(F)cc3)c(-c3ccncc3)[nH]2)cc1 (2.5 µM),inactive: 0,inactive: 0,inactive: 0,inactive: 0,inactive: 0,inactive: 0,inactive: 0,inactive: 0,0,0,0,0,0,0,0,0,0,0,0,0
COc1cc(C=C(C#N)C(N)=O)cc(CSc2nc3ccccc3s2)c1O (10 µM),inactive: 0,inactive: 0,inactive: 0,inactive: 0,inactive: 0,inactive: 0,inactive: 0,inactive: 0,0,0,0,0,0,0,0,0,0,0,0,0
COc1cc2ncnc(Nc3cccc(Cl)c3F)c2cc1OC(=O)N1CCN(C)C[C@H]1C [Zorifertinib] (10 µM),inactive: 0,inactive: 0,inactive: 0,inactive: 0,inactive: 0,inactive: 0,inactive: 0,inactive: 0,0,0,0,0,0,0,0,0,0,0,0,0
C=CC(=O)Nc1ccc2ncnc(Nc3cccc(Br)c3)c2c1 (10 µM),inactive: 0,inactive: 0,inactive: 0,inactive: 0,inactive: 0,inactive: 0,inactive: 0,inactive: 0,0,0,0,0,0,0,0,4,0,0,4,0
CC(C)(C)n1nc(Cc2cccc3ccccc23)c2c(N)ncnc21 (10 µM),inactive: 0,inactive: 0,inactive: 0,inactive: 0,inactive: 0,inactive: 0,inactive: 0,inactive: 0,0,0,0,0,0,0,0,0,0,0,0,0
CC(C)(C)c1nc2c3cc[nH]c(=O)c3c3cc(F)ccc3c2[nH]1 [Pyridone 6] (10 µM),inactive: 0,inactive: 0,inactive: 0,inactive: 0,inactive: 0,inactive: 0,inactive: 0,inactive: 0,0,0,0,0,0,0,0,0,0,0,0,0
N#C/C(=C\c1ccc(O)c(O)c1)C(=O)NCCCc1ccccc1 (10 µM),inactive: 0,inactive: 0,inactive: 0,inactive: 0,inactive: 0,inactive: 0,inactive: 0,inactive: 0,0,0,0,0,0,0,0,0,0,0,0,0
C=CC(=O)N1CC[C@H](n2nc(C#Cc3cc(OC)cc(OC)c3)c3c(N)ncnc32)C1 [Futibatinib] (10 µM),inactive: 0,inactive: 0,inactive: 0,inactive: 0,inactive: 0,inactive: 0,inactive: 0,inactive: 0,0,0,0,0,0,0,0,0,0,0,0,0
Cc1ncc(-c2ccnc(Nc3ccc(S(C)(=O)=O)cc3)n2)n1C(C)C (2.5 µM),inactive: 0,inactive: 0,inactive: 0,inactive: 0,inactive: 0,inactive: 0,inactive: 0,inactive: 0,0,0,0,0,3,0,0,0,3,0,1,0
CC(C)Oc1cc(Nc2nc(N[C@@H](C)c3ccc(F)cn3)ncc2Cl)n[nH]1 (10 µM),inactive: 0,inactive: 0,inactive: 0,inactive: 0,inactive: 0,inactive: 0,inactive: 0,inactive: 0,0,0,0,0,0,0,0,0,0,0,0,0
COc1cc(C)c(Sc2cnc(NC(=O)c3ccc(CNC(C)C(C)(C)C)cc3)s2)cc1C(=O)N1CCN(C(C)=O)CC1 (stereo not given) (2.5 µM),inactive: 0,inactive: 0,inactive: 0,inactive: 0,inactive: 0,inactive: 0,inactive: 0,inactive: 0,0,0,0,0,0,0,0,0,0,0,0,0
COc1cc(OC)cc(-c2cc3cnc(N)nc3nc2NC(=O)NC(C)(C)C)c1 (10 µM),inactive: 0,inactive: 0,inactive: 0,inactive: 0,inactive: 0,inactive: 0,inactive: 0,inactive: 0,0,0,0,0,0,0,0,0,0,0,0,0

# Shown tab-delimited: part of the list above
Compound	kinase-Nluc reporter destabilization hit call (STK38)	kinase-Nluc reporter destabilization hit call (SYK)	kinase-Nluc reporter destabilization hit call (TEC)	kinase-Nluc reporter destabilization hit call (TYK2)	kinase-Nluc reporter destabilization hit call (ULK3)	kinase-Nluc reporter destabilization hit call (YES1)	kinase-Nluc reporter destabilization hit call (ZAK)	kinase-Nluc reporter destabilization hit call (ZAP70)	number of time points (ABL1)	number of time points (AKT1)	number of time points (ALK)	number of time points (ARAF)	number of time points (AURKA)	number of time points (AURKB)	number of time points (AURKC)	number of time points (BLK)	number of time points (BMX)	number of time points (BRAF)	number of time points (BRAF_V600E)	number of time points (BTK)
CCOc1cc2ncc(C#N)c(Nc3ccc(OCc4ccccn4)c(Cl)c3)c2cc1NC(=O)/C=C/CN(C)C [Neratinib] (10 µM)	inactive: 0	inactive: 0	inactive: 0	inactive: 0	inactive: 0	inactive: 0	inactive: 0	inactive: 0	1	0	0	0	0	0	0	0	3	0	0	0
C[C@H](CN(C)C)Oc1nc(Nc2cc3cccc(Cl)c3cn2)cnc1C#N (10 µM)	inactive: 0	inactive: 0	inactive: 0	inactive: 0	inactive: 0	inactive: 0	inactive: 0	inactive: 0	0	0	0	0	0	0	0	0	0	0	0	0
